Data source: PubChem BioAssay AID1259308 (NCATS, 2017)

Screen: 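Genes whose loss raises luciferase production in HEK293 cells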 (primary screen)
System: human HEK293 embryonic kidney cells stably expressing firefly luciferase (HEK-CMV-Luc2-Hygro)
Reagent: single siRNA against human genes, 0.8 pmol siRNA per well
Time to read-out: 72 h
Detection: 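Luciferase light (ONE-Glo) measured on one replicate plate set and viability (CellTiter-Glo) on the other, scaled to a negative control siRNA, with robust z-scores and luciferase per cell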
Scale: total luciferase, z-score: higher = more reporter protein produced
Call rule: 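Active when the median/MAD z-score for overall luciferase is greater than 3; a gene was taken forward for validation with new siRNAs if at least two of its three siRNAs passed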
Meaning of the calls: active = raised luciferase; inactive = no rise
Shown is an unselected part of about 59,000 deposited reagents. About 1,510 of all reagents (2.6%) were called active. 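Calls use total luciferase alone and ignore viability, so some active siRNAs may act by altering cell number.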 A number with no mark means an inactive call. Reagents against one gene are numbered here. Not all columns of the deposit are shown.

GRB7 #1 → total luciferase, z-score = -0.691
GRB7 #2 → total luciferase, z-score = 1.18
GRB7 #3 → total luciferase, z-score = -1.28
ARL1 #1 → total luciferase, z-score = 0.634
ARL1 #2 → total luciferase, z-score = -0.868
ARL1 #3 → total luciferase, z-score = 0.297
MBOAT1 #1 → total luciferase, z-score = -1.83
MBOAT1 #2 → total luciferase, z-score = -0.419
MBOAT1 #3 → total luciferase, z-score = -0.367
GTF2H2 #1 → total luciferase, z-score = -1.15
GTF2H2 #2 → total luciferase, z-score = 2.65
GTF2H2 #3 → total luciferase, z-score = -0.0952

Quoted from the listing, 3 entries:
GTF2H2 #1 → total luciferase, z-score = -1.15
GTF2H2 #2 → total luciferase, z-score = 2.65
GTF2H2 #3 → total luciferase, z-score = -0.0952

Additional results follow:
OMP #1 → total luciferase, z-score = 0.0851
OMP #2 → total luciferase, z-score = 1.53
OMP #3 → total luciferase, z-score = -1.1
DBX1 #1 → total luciferase, z-score = 0.691
DBX1 #2 → total luciferase, z-score = -0.256
DBX1 #3 → total luciferase, z-score = 2.15
SCUBE2 #1 → total luciferase, z-score = -0.201
SCUBE2 #2 → total luciferase, z-score = -1.23
SCUBE2 #3 → total luciferase, z-score = 0.0848
